Measurements as given in publication PMC6802383.
Results are given in words; binding and its absence hold for the method and conditions named. In cells and extracts the contact can be indirect. Some results given as binding are weak or reduced against the parent protein; the word gives no strength. Sequences can lack the tags named with a protein.

T1: neuronal glycine transporter GlyT2 (rat) (UniProt P58295)
T1 sequence: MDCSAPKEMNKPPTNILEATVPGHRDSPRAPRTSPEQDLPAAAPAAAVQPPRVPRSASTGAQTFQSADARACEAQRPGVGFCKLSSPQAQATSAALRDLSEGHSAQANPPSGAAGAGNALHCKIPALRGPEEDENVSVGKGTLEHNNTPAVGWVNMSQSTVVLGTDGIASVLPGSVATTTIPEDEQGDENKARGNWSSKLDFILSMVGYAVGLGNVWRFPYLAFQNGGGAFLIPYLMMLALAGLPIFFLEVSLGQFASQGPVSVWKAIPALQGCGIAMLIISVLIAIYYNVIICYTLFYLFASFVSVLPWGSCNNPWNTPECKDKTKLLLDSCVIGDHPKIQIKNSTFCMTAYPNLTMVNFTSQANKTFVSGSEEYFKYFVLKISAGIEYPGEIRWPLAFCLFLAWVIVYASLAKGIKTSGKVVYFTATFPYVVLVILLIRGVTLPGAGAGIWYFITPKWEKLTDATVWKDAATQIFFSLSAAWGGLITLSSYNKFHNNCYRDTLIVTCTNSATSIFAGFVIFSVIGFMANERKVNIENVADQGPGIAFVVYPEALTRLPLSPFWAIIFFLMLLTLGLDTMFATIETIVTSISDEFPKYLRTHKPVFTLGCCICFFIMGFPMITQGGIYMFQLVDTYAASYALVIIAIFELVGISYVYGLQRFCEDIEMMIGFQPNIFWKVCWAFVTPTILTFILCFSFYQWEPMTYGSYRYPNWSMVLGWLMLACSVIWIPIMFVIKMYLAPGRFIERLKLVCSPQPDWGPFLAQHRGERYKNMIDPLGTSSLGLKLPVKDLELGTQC

T2: FLAG-tagged LNX1-p80 isoform (UniProt O70263)
T2 sequence: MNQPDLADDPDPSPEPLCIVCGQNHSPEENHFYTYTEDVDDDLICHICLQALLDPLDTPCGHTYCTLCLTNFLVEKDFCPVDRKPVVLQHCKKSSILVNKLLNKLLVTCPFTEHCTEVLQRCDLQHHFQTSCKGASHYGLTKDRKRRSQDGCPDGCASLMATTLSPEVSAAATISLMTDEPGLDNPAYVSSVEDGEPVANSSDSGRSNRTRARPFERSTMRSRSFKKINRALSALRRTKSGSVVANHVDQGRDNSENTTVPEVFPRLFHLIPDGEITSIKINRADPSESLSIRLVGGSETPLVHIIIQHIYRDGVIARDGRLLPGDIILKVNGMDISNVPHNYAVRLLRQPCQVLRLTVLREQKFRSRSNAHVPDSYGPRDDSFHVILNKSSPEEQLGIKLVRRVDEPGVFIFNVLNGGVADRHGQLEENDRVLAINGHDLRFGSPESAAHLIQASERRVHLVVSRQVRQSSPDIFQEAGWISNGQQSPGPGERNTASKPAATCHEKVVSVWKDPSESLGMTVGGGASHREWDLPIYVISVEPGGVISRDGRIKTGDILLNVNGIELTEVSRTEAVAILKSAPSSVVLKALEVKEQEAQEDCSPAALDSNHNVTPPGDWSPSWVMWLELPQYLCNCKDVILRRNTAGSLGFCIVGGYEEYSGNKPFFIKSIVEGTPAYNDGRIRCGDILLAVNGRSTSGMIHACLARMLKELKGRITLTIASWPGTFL

T3: Myc-tagged LNX2 (mouse) (UniProt Q91XL2)
T3 sequence: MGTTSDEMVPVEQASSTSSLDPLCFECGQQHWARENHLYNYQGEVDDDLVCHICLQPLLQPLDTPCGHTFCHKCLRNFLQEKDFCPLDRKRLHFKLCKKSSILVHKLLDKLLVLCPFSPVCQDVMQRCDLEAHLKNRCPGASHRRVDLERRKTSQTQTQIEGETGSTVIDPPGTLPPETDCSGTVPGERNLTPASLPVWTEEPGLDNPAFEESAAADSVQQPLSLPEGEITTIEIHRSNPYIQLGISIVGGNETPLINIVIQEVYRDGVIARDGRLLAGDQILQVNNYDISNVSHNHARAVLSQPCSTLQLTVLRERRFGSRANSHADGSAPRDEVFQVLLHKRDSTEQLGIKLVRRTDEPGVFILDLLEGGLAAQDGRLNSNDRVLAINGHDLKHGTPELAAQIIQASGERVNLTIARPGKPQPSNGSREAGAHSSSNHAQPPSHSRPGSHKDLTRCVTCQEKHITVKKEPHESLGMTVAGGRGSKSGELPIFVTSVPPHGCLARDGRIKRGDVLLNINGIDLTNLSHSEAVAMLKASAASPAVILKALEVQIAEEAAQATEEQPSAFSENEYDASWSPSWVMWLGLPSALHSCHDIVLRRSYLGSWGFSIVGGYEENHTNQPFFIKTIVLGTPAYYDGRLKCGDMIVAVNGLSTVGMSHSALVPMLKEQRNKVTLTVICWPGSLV

T4: Myc-tagged LNX1-p70 (mouse) (UniProt O70263)
T4 sequence: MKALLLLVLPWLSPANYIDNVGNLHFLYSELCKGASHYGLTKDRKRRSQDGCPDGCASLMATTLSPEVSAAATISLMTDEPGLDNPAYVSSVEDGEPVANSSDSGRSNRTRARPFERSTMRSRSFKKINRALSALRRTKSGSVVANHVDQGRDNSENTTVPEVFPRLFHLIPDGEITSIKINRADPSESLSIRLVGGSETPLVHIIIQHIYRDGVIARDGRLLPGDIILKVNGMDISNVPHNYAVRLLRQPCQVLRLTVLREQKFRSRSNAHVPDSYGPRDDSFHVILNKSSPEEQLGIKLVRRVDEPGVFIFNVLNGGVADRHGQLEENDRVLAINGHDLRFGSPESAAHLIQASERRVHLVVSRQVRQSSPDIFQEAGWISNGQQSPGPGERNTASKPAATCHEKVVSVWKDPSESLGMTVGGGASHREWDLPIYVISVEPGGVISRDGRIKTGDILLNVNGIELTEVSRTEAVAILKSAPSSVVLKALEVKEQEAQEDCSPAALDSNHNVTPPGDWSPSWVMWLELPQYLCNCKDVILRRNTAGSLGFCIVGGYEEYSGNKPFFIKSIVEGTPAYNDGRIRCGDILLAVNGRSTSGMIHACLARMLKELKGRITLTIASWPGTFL


Columns and labels:
Test in all cases: co-IP; COS7 cells co-transfected with GlyT2 and tagged LNX; lysed in TN buffer (25 mM Tris HCl, 150 mM NaCl, pH 7.4) with 0.25% NP-40; immunoprecipitation with rat anti-GlyT2, anti-c-Myc or anti-FLAG M2 overnight at 4 °C, protein G agarose; Western blot
[1] = biological target: T1, neuronal glycine transporter GlyT2 (rat)
[2] = biological target: T2, FLAG-tagged LNX1-p80 isoform
Myc-tagged LNX2 (mouse) = biological target: T3, Myc-tagged LNX2 (mouse)
[3] = biological target: T4, Myc-tagged LNX1-p70 (mouse)

binding [1]	binding [2]	binding (Myc-tagged LNX2 (mouse))	binding [3]	Binder
binds				Myc-tagged LNX2 (enzyme, UniProt Q91XL2 1-687) MGTTSDEMVPVEQASSTSSLDPLCFECGQQHWARENHLYNYQGEVDDDLVCHICLQPLLQPLDTPCGHTFCHKCLRNFLQEKDFCPLDRKRLHFKLCKKSSILVHKLLDKLLVLCPFSPVCQDVMQRCDLEAHLKNRCPGASHRRVDLERRKTSQTQTQIEGETGSTVIDPPGTLPPETDCSGTVPGERNLTPASLPVWTEEPGLDNPAFEESAAADSVQQPLSLPEGEITTIEIHRSNPYIQLGISIVGGNETPLINIVIQEVYRDGVIARDGRLLAGDQILQVNNYDISNVSHNHARAVLSQPCSTLQLTVLRERRFGSRANSHADGSAPRDEVFQVLLHKRDSTEQLGIKLVRRTDEPGVFILDLLEGGLAAQDGRLNSNDRVLAINGHDLKHGTPELAAQIIQASGERVNLTIARPGKPQPSNGSREAGAHSSSNHAQPPSHSRPGSHKDLTRCVTCQEKHITVKKEPHESLGMTVAGGRGSKSGELPIFVTSVPPHGCLARDGRIKRGDVLLNINGIDLTNLSHSEAVAMLKASAASPAVILKALEVQIAEEAAQATEEQPSAFSENEYDASWSPSWVMWLGLPSALHSCHDIVLRRSYLGSWGFSIVGGYEENHTNQPFFIKTIVLGTPAYYDGRLKCGDMIVAVNGLSTVGMSHSALVPMLKEQRNKVTLTVICWPGSLV
binds				FLAG-tagged LNX1-p80 isoform (enzyme, UniProt O70263 1-728) MNQPDLADDPDPSPEPLCIVCGQNHSPEENHFYTYTEDVDDDLICHICLQALLDPLDTPCGHTYCTLCLTNFLVEKDFCPVDRKPVVLQHCKKSSILVNKLLNKLLVTCPFTEHCTEVLQRCDLQHHFQTSCKGASHYGLTKDRKRRSQDGCPDGCASLMATTLSPEVSAAATISLMTDEPGLDNPAYVSSVEDGEPVANSSDSGRSNRTRARPFERSTMRSRSFKKINRALSALRRTKSGSVVANHVDQGRDNSENTTVPEVFPRLFHLIPDGEITSIKINRADPSESLSIRLVGGSETPLVHIIIQHIYRDGVIARDGRLLPGDIILKVNGMDISNVPHNYAVRLLRQPCQVLRLTVLREQKFRSRSNAHVPDSYGPRDDSFHVILNKSSPEEQLGIKLVRRVDEPGVFIFNVLNGGVADRHGQLEENDRVLAINGHDLRFGSPESAAHLIQASERRVHLVVSRQVRQSSPDIFQEAGWISNGQQSPGPGERNTASKPAATCHEKVVSVWKDPSESLGMTVGGGASHREWDLPIYVISVEPGGVISRDGRIKTGDILLNVNGIELTEVSRTEAVAILKSAPSSVVLKALEVKEQEAQEDCSPAALDSNHNVTPPGDWSPSWVMWLELPQYLCNCKDVILRRNTAGSLGFCIVGGYEEYSGNKPFFIKSIVEGTPAYNDGRIRCGDILLAVNGRSTSGMIHACLARMLKELKGRITLTIASWPGTFL
binds				Myc-tagged LNX1-p70 (protein, UniProt O70263-2 1-628) MKALLLLVLPWLSPANYIDNVGNLHFLYSELCKGASHYGLTKDRKRRSQDGCPDGCASLMATTLSPEVSAAATISLMTDEPGLDNPAYVSSVEDGEPVANSSDSGRSNRTRARPFERSTMRSRSFKKINRALSALRRTKSGSVVANHVDQGRDNSENTTVPEVFPRLFHLIPDGEITSIKINRADPSESLSIRLVGGSETPLVHIIIQHIYRDGVIARDGRLLPGDIILKVNGMDISNVPHNYAVRLLRQPCQVLRLTVLREQKFRSRSNAHVPDSYGPRDDSFHVILNKSSPEEQLGIKLVRRVDEPGVFIFNVLNGGVADRHGQLEENDRVLAINGHDLRFGSPESAAHLIQASERRVHLVVSRQVRQSSPDIFQEAGWISNGQQSPGPGERNTASKPAATCHEKVVSVWKDPSESLGMTVGGGASHREWDLPIYVISVEPGGVISRDGRIKTGDILLNVNGIELTEVSRTEAVAILKSAPSSVVLKALEVKEQEAQEDCSPAALDSNHNVTPPGDWSPSWVMWLELPQYLCNCKDVILRRNTAGSLGFCIVGGYEEYSGNKPFFIKSIVEGTPAYNDGRIRCGDILLAVNGRSTSGMIHACLARMLKELKGRITLTIASWPGTFL
	binds	binds	binds	neuronal glycine transporter GlyT2 (protein, UniProt P58295-1 1-799) MDCSAPKEMNKPPTNILEATVPGHRDSPRAPRTSPEQDLPAAAPAAAVQPPRVPRSASTGAQTFQSADARACEAQRPGVGFCKLSSPQAQATSAALRDLSEGHSAQANPPSGAAGAGNALHCKIPALRGPEEDENVSVGKGTLEHNNTPAVGWVNMSQSTVVLGTDGIASVLPGSVATTTIPEDEQGDENKARGNWSSKLDFILSMVGYAVGLGNVWRFPYLAFQNGGGAFLIPYLMMLALAGLPIFFLEVSLGQFASQGPVSVWKAIPALQGCGIAMLIISVLIAIYYNVIICYTLFYLFASFVSVLPWGSCNNPWNTPECKDKTKLLLDSCVIGDHPKIQIKNSTFCMTAYPNLTMVNFTSQANKTFVSGSEEYFKYFVLKISAGIEYPGEIRWPLAFCLFLAWVIVYASLAKGIKTSGKVVYFTATFPYVVLVILLIRGVTLPGAGAGIWYFITPKWEKLTDATVWKDAATQIFFSLSAAWGGLITLSSYNKFHNNCYRDTLIVTCTNSATSIFAGFVIFSVIGFMANERKVNIENVADQGPGIAFVVYPEALTRLPLSPFWAIIFFLMLLTLGLDTMFATIETIVTSISDEFPKYLRTHKPVFTLGCCICFFIMGFPMITQGGIYMFQLVDTYAASYALVIIAIFELVGISYVYGLQRFCEDIEMMIGFQPNIFWKVCWAFVTPTILTFILCFSFYQWEPMTYGSYRYPNWSMVLGWLMLACSVIWIPIMFVIKMYLAPGRFIERLKLVCSPQPDWGPFLAQHRGERYKNMIDPLGTSSLGLKLPVKDLELGTQC
